# Data taken from the supplement of paper PMC8728848.
# This is one part of the list.
# B1: SP15308F-bth-333-19-333 (Bacteroides thetaiotaomicron) (protein)
# chain: SCNNEWESEQYVQMVSFKAPVNAQGVTPIYIRYKPEGKVTYQLPLIVSGSTMNSKDLNVHVGLDLDTLDVLNVEHFGSRKELFFKPLENKYYEFPETVQIPAGECTSLLPIDFALKDLDQVDKWVLPLAIQSNDPSHNYQANPRKFYRRAMLRISPFNDYSGQYSATAYKVYFKGNEKEAIVPEYHTSYVIDDKTIFFYAGLIDIDRLDRKYYKIKFEFTEEKIDLQTRKLKISSDNEDINLVVKGQPSYTVEEEMDATRPYLKHIYVTINNLEYEFTDYTSVPGYPLEYVVKGSLTMERKINTQIPDEDQAIEW
# Assays:
# Experiment in all cases: glycan array binding signal (z-score within array); higher = stronger binding
# Settings in all cases: glycan notation: IUPAC condensed, linker removed
# [1] = target: GlcNAc(b1-4)GlcNAc(b1-4)GlcNAc(b1-4)GlcNAc(b1-4)GlcNAc(b1-4)GlcNAc
# How it was run: (§1)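 Columns mapping to the same glycan were averaged after glycan names were converted to IUPAC-condensed notation. The data come from 3228 arrays in the Consortium for Functional Glycomics database, limited to those with an available protein sequence. Binding is reported as a within-array Z-score averaged across arrays of one protein sequence and across linkers.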
# [2] = target: GlcNAc(b1-4)[GlcNAc(b1-6)]GalNAc
# How it was run: as §1
# [3] = target: GlcNAc(b1-6)Gal(b1-4)GlcNAc
# How it was run: as §1
# GlcNAc(b1-6)GalNAc = target: GlcNAc(b1-6)GalNAc
# How it was run: as §1
# [4] = target: GlcNAc6S(b1-3)Gal(b1-4)GlcNAc
# How it was run: as §1
# Kdn(a2-3)Gal(b1-3)GalNAc = target: Kdn(a2-3)Gal(b1-3)GalNAc
# How it was run: as §1
# Kdn(a2-3)Gal(b1-3)GlcNAc = target: Kdn(a2-3)Gal(b1-3)GlcNAc
# How it was run: as §1
# Kdn(a2-3)Gal(b1-4)Glc = target: Kdn(a2-3)Gal(b1-4)Glc
# How it was run: as §1
# Kdn(a2-3)Gal(b1-4)GlcNAc = target: Kdn(a2-3)Gal(b1-4)GlcNAc
# How it was run: as §1
# [5] = target: Kdn(a2-3)Gal(b1-4)[Fuc(a1-3)]GlcNAc
# How it was run: as §1
# Kdn(a2-6)Gal(b1-4)GlcNAc = target: Kdn(a2-6)Gal(b1-4)GlcNAc
# How it was run: as §1
# [6] = target: Man(a1-2)Man(a1-2)Man(a1-3)Man
# How it was run: as §1
# [7] = target: Man(a1-2)Man(a1-2)Man(a1-6)[Man(a1-3)]Man
# How it was run: as §1
# Man(a1-2)Man(a1-3)Man = target: Man(a1-2)Man(a1-3)Man
# How it was run: as §1
# [8] = target: Man(a1-2)Man(a1-3)[Man(a1-2)Man(a1-6)]Man
# How it was run: as §1
# [9] = target: Man(a1-2)Man(a1-3)[Man(a1-2)Man(a1-6)]Man(a1-6)[Man(a1-2)Man(a1-2)Man(a1-3)]Man
# How it was run: as §1
# [10] = target: Man(a1-2)Man(a1-3)[Man(a1-2)Man(a1-6)]Man(a1-6)[Man(a1-2)Man(a1-2)Man(a1-3)]Man(b1-4)GlcNAc(b1-4)GlcNAc
# How it was run: as §1
# [11] = target: Man(a1-2)Man(a1-3)[Man(a1-6)]Man(a1-6)[Man(a1-2)Man(a1-3)]Man(b1-4)GlcNAc(b1-4)GlcNAc
# How it was run: as §1
# [12] = target: Man(a1-2)Man(a1-6)[Man(a1-3)]Man(a1-6)[Man(a1-2)Man(a1-2)Man(a1-3)]Man
# How it was run: as §1
# [13] = target: Man(a1-2)Man(a1-6)[Man(a1-3)]Man(a1-6)[Man(a1-2)Man(a1-2)Man(a1-3)]Man(b1-4)GlcNAc(b1-4)GlcNAc
# How it was run: as §1
# Man(a1-3)[Man(a1-6)]Man = target: Man(a1-3)[Man(a1-6)]Man
# How it was run: as §1
# [14] = target: Man(a1-3)[Man(a1-6)]Man(a1-6)[Man(a1-2)Man(a1-3)]Man(b1-4)GlcNAc(b1-4)GlcNAc
# How it was run: as §1
# [15] = target: Man(a1-3)[Man(a1-6)]Man(a1-6)[Man(a1-3)]Man
# How it was run: as §1
# [16] = target: Man(a1-3)[Man(a1-6)]Man(a1-6)[Man(a1-3)]Man(b1-4)GlcNAc(b1-4)GlcNAc
# How it was run: as §1
# [17] = target: Man(a1-3)[Man(a1-6)]Man(b1-4)GlcNAc(b1-4)GlcNAc
# How it was run: as §1
# [18] = target: Man(a1-3)[Man(a1-6)]Man(b1-4)GlcNAc(b1-4)[Fuc(a1-6)]GlcNAc
# How it was run: as §1
# Man(a1-6)Man = target: Man(a1-6)Man
# How it was run: as §1
# Man(b1-4)GlcNAc = target: Man(b1-4)GlcNAc
# How it was run: as §1
# MurNAc(b1-4)GlcNAc = target: MurNAc(b1-4)GlcNAc
# How it was run: as §1
# Neu5Ac(a2-3)Gal = target: Neu5Ac(a2-3)Gal
# How it was run: as §1
# [19] = target: Neu5Ac(a2-3)Gal(b1-3)GalNAc
# How it was run: as §1
# [20] = target: Neu5Ac(a2-3)Gal(b1-3)GalNAc(b1-3)Gal(a1-4)Gal(b1-4)Glc
# How it was run: as §1
# [21] = target: Neu5Ac(a2-3)Gal(b1-3)GalNAc(b1-4)[Neu5Ac(a2-3)]Gal(b1-4)Glc
# How it was run: as §1
# [22] = target: Neu5Ac(a2-3)Gal(b1-3)GalNAc(b1-4)[Neu5Ac(a2-8)Neu5Ac(a2-3)]Gal(b1-4)Glc
# How it was run: as §1
# [23] = target: Neu5Ac(a2-3)Gal(b1-3)GalNAc6S
# How it was run: as §1
# [24] = target: Neu5Ac(a2-3)Gal(b1-3)GlcNAc
# How it was run: as §1
# [25] = target: Neu5Ac(a2-3)Gal(b1-3)GlcNAc(b1-2)Man
# How it was run: as §1
# [26] = target: Neu5Ac(a2-3)Gal(b1-3)GlcNAc(b1-2)Man(a1-3)[GlcNAc(b1-4)][Neu5Ac(a2-3)Gal(b1-3)GlcNAc(b1-2)Man(a1-6)]Man(b1-4)GlcNAc(b1-4)GlcNAc
# How it was run: as §1
# [27] = target: Neu5Ac(a2-3)Gal(b1-3)GlcNAc(b1-2)Man(a1-3)[Neu5Ac(a2-3)Gal(b1-3)GlcNAc(b1-2)Man(a1-6)]Man(b1-4)GlcNAc(b1-4)GlcNAc
# How it was run: as §1
# [28] = target: Neu5Ac(a2-3)Gal(b1-3)GlcNAc(b1-3)Gal(b1-3)GlcNAc
# How it was run: as §1
# [29] = target: Neu5Ac(a2-3)Gal(b1-3)GlcNAc(b1-3)Gal(b1-4)GlcNAc
# How it was run: as §1
# [30] = target: Neu5Ac(a2-3)Gal(b1-3)GlcNAc(b1-3)GalNAc
# How it was run: as §1
# [31] = target: Neu5Ac(a2-3)Gal(b1-3)GlcNAc(b1-4)Gal(b1-4)Glc
# How it was run: as §1
# [32] = target: Neu5Ac(a2-3)Gal(b1-3)GlcNAc(b1-6)GalNAc
# How it was run: as §1
# [33] = target: Neu5Ac(a2-3)Gal(b1-3)GlcNAc6S
# How it was run: as §1
binder,measurement,setting,value
B1,glycan array binding signal (z-score),[1],-2
same,glycan array binding signal (z-score),[2],0.249
same,glycan array binding signal (z-score),[3],0.112
same,glycan array binding signal (z-score),GlcNAc(b1-6)GalNAc,0.53
same,glycan array binding signal (z-score),[4],-0.68
same,glycan array binding signal (z-score),Kdn(a2-3)Gal(b1-3)GalNAc,0.817
same,glycan array binding signal (z-score),Kdn(a2-3)Gal(b1-3)GlcNAc,-0.01
same,glycan array binding signal (z-score),Kdn(a2-3)Gal(b1-4)Glc,-0.56
same,glycan array binding signal (z-score),Kdn(a2-3)Gal(b1-4)GlcNAc,0.16
same,glycan array binding signal (z-score),[5],-0.982
same,glycan array binding signal (z-score),Kdn(a2-6)Gal(b1-4)GlcNAc,0.617
same,glycan array binding signal (z-score),[6],0.203
same,glycan array binding signal (z-score),[7],-0.065
same,glycan array binding signal (z-score),Man(a1-2)Man(a1-3)Man,-0.456
same,glycan array binding signal (z-score),[8],1.07
same,glycan array binding signal (z-score),[9],-1.01
same,glycan array binding signal (z-score),[10],-0.143
same,glycan array binding signal (z-score),[11],-1.62
same,glycan array binding signal (z-score),[12],-0.134
same,glycan array binding signal (z-score),[13],1.21
same,glycan array binding signal (z-score),Man(a1-3)[Man(a1-6)]Man,-0.694
same,glycan array binding signal (z-score),[14],-0.363
same,glycan array binding signal (z-score),[15],-0.462
same,glycan array binding signal (z-score),[16],-0.336
same,glycan array binding signal (z-score),[17],-1.23
same,glycan array binding signal (z-score),[18],-0.312
same,glycan array binding signal (z-score),Man(a1-6)Man,-0.195
same,glycan array binding signal (z-score),Man(b1-4)GlcNAc,0.769
same,glycan array binding signal (z-score),MurNAc(b1-4)GlcNAc,0.696
same,glycan array binding signal (z-score),Neu5Ac(a2-3)Gal,0.024
same,glycan array binding signal (z-score),[19],1.83
same,glycan array binding signal (z-score),[20],-0.692
same,glycan array binding signal (z-score),[21],-0.044
same,glycan array binding signal (z-score),[22],0.059
same,glycan array binding signal (z-score),[23],-0.114
same,glycan array binding signal (z-score),[24],-0.28
same,glycan array binding signal (z-score),[25],1.15
same,glycan array binding signal (z-score),[26],-0.819
same,glycan array binding signal (z-score),[27],-1.03
same,glycan array binding signal (z-score),[28],-0.7
same,glycan array binding signal (z-score),[29],-0.006
same,glycan array binding signal (z-score),[30],0.286
same,glycan array binding signal (z-score),[31],-0.657
same,glycan array binding signal (z-score),[32],-0.449
same,glycan array binding signal (z-score),[33],0.742

# Random excerpt: two entries already listed, in no set order.
binder,measurement,setting,value
B1,glycan array binding signal (z-score),Kdn(a2-3)Gal(b1-4)Glc,-0.56
same,glycan array binding signal (z-score),[5],-0.982
